Source: PMC10352482
No constants are given. Whether binding was seen depends on the method and setting. Binding seen in cells or lysates may run through a third protein.

By UniProt entry, the sequences of proteins in these tests, tags left out.
UniProt P01106: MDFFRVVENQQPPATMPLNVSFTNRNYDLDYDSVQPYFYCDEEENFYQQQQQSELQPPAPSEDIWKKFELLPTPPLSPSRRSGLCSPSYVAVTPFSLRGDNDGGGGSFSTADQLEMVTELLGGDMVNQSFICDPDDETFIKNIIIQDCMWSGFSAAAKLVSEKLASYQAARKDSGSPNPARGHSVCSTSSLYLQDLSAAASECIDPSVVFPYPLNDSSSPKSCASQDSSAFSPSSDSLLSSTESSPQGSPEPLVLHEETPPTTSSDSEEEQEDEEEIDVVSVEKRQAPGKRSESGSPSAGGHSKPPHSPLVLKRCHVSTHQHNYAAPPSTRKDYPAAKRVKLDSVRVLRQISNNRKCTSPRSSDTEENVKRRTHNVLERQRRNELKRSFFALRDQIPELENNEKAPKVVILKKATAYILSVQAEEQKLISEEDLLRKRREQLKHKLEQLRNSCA

Target: T1, F-ATP synthase inhibitory factor 1, endogenous in HEK293T cells (human (endogenous in HEK293T)) (UniProt Q9UII2)
T1 sequence: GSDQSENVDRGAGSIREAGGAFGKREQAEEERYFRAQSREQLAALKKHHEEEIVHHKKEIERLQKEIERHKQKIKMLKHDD
Assay: cross-linking; cross-linking by DTBP (cleavable by DTT) in isolated mitochondria from HEK293T cells; no data shown

binding: no binding
Substance: c-Myc, endogenous in HEK293T cells (from UniProt P01106 1-454)
